Measurements: paper PMC11753439
Results are given in words; binding and its absence hold for the method and conditions named. Binding seen in cells or lysates may run through a third protein. Some binding calls cover weakened binding; strength is not graded here.

Biological target: T1, Nodulin-35 (UniProt P04670)
T1 sequence: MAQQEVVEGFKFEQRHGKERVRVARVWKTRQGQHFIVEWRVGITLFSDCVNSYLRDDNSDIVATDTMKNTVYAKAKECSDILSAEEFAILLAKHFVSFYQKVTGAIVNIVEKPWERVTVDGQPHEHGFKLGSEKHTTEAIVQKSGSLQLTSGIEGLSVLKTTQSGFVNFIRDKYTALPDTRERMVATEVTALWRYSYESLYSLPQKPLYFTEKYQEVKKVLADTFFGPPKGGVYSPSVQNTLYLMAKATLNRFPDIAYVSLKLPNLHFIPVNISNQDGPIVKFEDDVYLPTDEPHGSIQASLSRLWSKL
Assay: split reporter; BiFC with YFPN and YFPC fusions (p326YFPN, p326YFPC) transformed together into onion epidermal cells; fluorescence microscopy

- binding: binds
B1: AtTRX-o1 (protein, UniProt O64764 43-194)
chain: SSLIARNSLFTASNIGPSIDFNFSNTSLPHRRSLCSEAGGENGVVLVKSEEEFINAMSKAQDGSLPSVFYFTAAWCGPCRFISPVIVELSKQYPDVTTYKVDIDEGGISNTISKLNITAVPTLHFFKGGSKKGEVVGADVTKLKNLMEQLYK
